From doi:10.1101/2020.02.04.933820 come the findings set out here.

The chains behind the UniProt entries cited, without tags or fusion partners.
UniProt P40477: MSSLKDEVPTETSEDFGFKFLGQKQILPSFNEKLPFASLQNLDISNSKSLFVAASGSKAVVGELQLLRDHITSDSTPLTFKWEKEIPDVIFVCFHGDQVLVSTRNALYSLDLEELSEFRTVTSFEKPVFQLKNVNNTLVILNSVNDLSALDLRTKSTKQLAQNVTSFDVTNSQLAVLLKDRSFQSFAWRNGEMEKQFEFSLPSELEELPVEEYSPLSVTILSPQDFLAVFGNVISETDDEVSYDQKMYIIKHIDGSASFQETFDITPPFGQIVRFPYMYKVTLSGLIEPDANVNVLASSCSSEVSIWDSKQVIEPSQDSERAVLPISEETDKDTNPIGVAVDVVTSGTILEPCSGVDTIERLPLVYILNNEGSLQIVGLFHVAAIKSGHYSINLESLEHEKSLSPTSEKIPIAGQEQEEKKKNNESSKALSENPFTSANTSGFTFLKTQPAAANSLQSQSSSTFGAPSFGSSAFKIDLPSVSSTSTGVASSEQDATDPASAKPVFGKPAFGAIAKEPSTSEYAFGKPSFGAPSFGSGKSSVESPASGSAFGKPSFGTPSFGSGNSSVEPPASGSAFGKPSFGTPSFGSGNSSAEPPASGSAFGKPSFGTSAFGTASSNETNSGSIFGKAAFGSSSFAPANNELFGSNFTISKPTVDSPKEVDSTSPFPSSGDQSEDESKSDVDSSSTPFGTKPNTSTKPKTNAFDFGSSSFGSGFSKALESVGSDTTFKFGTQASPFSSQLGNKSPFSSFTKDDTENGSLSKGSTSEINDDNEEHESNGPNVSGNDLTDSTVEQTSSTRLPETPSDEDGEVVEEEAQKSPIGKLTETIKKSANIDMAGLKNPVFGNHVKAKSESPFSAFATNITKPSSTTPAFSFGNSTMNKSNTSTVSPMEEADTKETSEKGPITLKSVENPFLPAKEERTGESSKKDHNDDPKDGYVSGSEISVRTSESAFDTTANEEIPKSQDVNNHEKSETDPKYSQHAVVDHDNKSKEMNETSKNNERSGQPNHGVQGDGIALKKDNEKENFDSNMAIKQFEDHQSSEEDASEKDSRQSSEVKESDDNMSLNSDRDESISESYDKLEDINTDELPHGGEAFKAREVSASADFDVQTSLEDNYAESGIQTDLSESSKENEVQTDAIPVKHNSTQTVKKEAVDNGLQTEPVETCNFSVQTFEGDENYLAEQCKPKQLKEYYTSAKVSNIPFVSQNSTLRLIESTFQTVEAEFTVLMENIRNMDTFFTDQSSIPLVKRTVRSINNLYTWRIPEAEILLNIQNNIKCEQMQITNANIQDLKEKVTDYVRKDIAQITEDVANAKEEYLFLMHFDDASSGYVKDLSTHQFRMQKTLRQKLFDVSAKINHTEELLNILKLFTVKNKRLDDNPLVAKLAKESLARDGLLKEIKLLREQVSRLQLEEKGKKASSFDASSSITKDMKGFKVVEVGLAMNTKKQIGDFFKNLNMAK

For this assay, the target named is Nup159 (split-Venus fusion) (S. cerevisiae) (UniProt P40477). Kind of assay: split reporter.

Results are given in words; binding and its absence hold for the method and conditions named. Binding seen in cells or lysates may run through a third protein. Some binding calls cover weakened binding; strength is not graded here. Where a sequence is shown, tags or fusion partners need not be part of it.

B1: Atg8 (split-Venus fusion) (protein, UniProt P38182 1-117)
chain: MKSTFKSEYPFEKRKAESERIADRFKNRIPVICEKAEKSDIPEIDKRKYLVPADLTVGQFVYVIRKRIMLPPEKAIFIFVNDTLPPTAALMSAIYQEHKDKDGFLYVTYSGENTFGR
Take B1: the binding entry is “binds”.
